In publication doi:10.1101/2025.11.27.691040 (bioRxiv, 2025):
Results are given in words; binding and its absence hold for the method and conditions named. In cells and extracts the contact can be indirect. These calls come from enrichment with a bait or labelling near it, and not all partners need be listed. Where a sequence is shown, tags or fusion partners need not be part of it.

The chains behind the UniProt entries cited, without tags or fusion partners.
UniProt Q9SSD2: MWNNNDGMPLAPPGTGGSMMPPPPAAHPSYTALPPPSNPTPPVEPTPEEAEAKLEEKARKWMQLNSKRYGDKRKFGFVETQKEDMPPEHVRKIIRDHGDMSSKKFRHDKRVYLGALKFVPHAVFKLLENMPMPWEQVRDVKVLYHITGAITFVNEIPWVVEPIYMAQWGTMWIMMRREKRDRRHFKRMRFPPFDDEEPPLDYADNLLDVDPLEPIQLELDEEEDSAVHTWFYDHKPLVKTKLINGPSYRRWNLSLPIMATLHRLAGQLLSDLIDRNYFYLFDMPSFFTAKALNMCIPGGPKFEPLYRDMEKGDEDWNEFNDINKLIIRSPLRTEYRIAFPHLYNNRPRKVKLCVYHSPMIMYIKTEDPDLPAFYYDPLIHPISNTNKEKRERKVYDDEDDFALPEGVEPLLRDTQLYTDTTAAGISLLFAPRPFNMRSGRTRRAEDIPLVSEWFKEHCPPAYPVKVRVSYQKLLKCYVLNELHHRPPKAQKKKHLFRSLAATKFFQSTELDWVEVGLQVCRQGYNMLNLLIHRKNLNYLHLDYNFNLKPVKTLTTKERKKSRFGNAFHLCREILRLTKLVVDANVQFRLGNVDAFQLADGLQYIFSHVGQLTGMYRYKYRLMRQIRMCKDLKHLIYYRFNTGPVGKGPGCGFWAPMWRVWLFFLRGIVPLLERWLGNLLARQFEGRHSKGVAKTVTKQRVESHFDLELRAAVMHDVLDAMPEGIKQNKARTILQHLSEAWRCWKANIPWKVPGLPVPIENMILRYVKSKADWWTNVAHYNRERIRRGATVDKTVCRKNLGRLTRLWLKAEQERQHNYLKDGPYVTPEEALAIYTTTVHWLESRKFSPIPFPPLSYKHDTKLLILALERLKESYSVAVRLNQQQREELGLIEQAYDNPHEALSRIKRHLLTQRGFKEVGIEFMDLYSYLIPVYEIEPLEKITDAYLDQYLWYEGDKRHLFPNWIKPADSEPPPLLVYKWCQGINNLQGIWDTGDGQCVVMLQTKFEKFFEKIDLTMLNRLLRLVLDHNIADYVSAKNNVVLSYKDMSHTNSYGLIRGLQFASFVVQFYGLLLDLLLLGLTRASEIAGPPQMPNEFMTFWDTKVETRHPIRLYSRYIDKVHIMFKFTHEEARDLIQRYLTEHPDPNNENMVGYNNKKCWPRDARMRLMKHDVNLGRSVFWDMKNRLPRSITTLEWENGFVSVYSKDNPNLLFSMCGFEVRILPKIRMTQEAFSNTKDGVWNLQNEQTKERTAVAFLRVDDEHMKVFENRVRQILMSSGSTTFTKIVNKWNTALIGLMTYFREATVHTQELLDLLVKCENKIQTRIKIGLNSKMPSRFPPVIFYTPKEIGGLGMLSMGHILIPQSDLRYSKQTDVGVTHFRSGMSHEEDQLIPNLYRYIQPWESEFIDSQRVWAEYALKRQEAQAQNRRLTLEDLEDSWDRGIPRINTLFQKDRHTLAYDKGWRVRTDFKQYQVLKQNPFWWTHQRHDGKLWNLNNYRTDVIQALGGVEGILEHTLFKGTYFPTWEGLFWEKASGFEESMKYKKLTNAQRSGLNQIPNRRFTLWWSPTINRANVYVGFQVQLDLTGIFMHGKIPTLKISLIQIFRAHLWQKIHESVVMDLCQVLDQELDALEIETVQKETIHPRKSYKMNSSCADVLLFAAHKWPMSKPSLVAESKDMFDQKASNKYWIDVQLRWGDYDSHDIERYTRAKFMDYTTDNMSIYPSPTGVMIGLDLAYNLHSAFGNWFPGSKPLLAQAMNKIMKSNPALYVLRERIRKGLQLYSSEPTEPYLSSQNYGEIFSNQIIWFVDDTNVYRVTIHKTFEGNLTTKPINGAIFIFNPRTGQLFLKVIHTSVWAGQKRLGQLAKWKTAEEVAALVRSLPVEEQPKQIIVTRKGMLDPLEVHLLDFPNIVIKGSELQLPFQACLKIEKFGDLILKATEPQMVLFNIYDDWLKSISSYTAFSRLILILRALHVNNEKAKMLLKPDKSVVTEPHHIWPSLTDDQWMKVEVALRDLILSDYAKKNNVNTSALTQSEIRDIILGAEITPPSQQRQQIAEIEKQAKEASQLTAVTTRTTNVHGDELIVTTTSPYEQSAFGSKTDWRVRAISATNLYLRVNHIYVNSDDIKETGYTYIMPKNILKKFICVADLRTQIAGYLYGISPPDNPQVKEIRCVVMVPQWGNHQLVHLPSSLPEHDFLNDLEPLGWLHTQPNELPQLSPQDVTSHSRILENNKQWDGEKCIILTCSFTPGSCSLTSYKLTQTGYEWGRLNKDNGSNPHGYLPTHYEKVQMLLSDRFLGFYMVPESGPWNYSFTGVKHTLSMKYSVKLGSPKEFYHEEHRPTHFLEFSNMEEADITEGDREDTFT

target: T1, AtVIH2-mCit (pAtVIH2::AtVIH2-mCit fusion protein) (Arabidopsis thaliana) (UniProt F4J8C6); assay: affinity purification with mass spectrometry
T1 sequence: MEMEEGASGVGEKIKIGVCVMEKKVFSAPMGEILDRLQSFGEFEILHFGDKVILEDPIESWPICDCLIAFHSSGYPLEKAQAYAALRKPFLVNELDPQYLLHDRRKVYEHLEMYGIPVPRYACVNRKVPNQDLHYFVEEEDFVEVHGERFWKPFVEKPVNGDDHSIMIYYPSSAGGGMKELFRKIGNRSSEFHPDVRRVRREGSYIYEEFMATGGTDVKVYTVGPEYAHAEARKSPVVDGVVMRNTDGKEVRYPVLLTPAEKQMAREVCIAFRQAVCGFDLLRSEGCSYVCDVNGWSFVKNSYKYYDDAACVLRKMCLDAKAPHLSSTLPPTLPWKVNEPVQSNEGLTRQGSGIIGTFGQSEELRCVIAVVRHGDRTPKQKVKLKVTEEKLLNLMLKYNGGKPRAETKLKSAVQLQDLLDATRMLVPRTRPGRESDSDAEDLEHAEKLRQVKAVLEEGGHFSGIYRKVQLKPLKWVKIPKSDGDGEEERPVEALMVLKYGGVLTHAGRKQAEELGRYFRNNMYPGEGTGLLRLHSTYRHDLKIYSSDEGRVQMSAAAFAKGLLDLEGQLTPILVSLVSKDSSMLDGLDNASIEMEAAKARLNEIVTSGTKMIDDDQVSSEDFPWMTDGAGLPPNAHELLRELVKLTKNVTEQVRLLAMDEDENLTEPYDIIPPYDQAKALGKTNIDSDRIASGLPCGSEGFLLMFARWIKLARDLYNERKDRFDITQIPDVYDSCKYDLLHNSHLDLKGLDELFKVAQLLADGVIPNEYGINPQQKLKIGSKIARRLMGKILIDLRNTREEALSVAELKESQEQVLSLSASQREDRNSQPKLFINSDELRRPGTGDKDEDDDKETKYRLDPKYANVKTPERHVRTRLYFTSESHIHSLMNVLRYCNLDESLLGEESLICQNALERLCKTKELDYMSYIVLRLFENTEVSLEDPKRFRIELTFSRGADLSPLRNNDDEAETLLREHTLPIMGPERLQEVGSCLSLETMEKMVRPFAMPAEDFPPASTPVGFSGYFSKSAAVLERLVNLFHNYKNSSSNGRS

Molecule | binding
AtPRP8A, endogenous (from UniProt Q9SSD2 1-2359) | binds
AtLOS4, endogenous (protein, UniProt Q93ZG7 1-496) MADTVEKVPTVVESSSSSTVEASNSAEKTEPTTEKKKWGDVEDDDDEEEAVSELNSLSIKEEEKPDSILEEPEDSNIKAVTSGDTPYTSASRFEDLNLSPELMKGLYVEMKFEKPSKIQAISLPMIMTPPHKHLIAQAHNGSGKTTCFVLGMLSRVDPTLREPQALCICPTRELANQNMEVLQKMGKFTGITAELAVPDSTRGAPAATRGAPVSAHVVIGTPGTLKKWMAFKRLGLNHLKILVFDEADHMLATDGFRDDSLKIMKDIGRVNPNFQVLLFSATFNETVKDFVARTVKDPNQLFVKREDLALDSVKQYKVVCPKEQNKIEVIKDQIMELGDIGQTIIFVKTKASAQKVHKALAEMGYDVTSVHGNLTESDRDKIVKEFKECLTQVLIATDVIARGFDQQRVNLVVNYNLPTKYETGEPDYEVYLHRVGRAGRFGRKGAVFNLLLDDGWDKEVMEKIEKYFEANVKEIKSWNSEEEYKSALKEAGLLDE | binds
AtNAA15, endogenous (protein, UniProt Q8VZM1 1-897) MGASLPPKEANLFKLIVKSYETKQYKKGLKAADAILKKFPDHGETLSMKGLTLNCMDRKTEAYELVRLGVKNDIKSHVCWHVLGLLYRSDREYREAIKCYRNALRIDPDNLEILRDLSLLQAQMRDLSGFVETRQQLLTLKPNHRMNWIGFAVSQHLNANASKAVEILEAYEGTLEDDYPPENELIEHTEMILYKVSLLEESGSFDKALEELHKKEPKIVDKLSYKEQEVSLLSKVGRLEEANKLYRVLLSMNPDNYRYHEGLQKCLGLYSESGQYSSDQIEKLNALYQSLSEQYTRSSAVKRIPLDFLQDENFKEAVAKYIKPLLTKGVPSLFSDLSSLYDHPRKPDILEQLVVEMKHSIGTTGSFPGSDVKEPPSTLLWTLFFLAQHYDRRGQYDVALCKIDEAIAHTPTVIDLYSVKSRIMKHAGDLTAAAALADEARGMDLADRYINSECVKRMLQADQVPLAEKTAVLFTKEGDQLNNLHDMQCMWYDLASGDSYFRQGDLGRALKKFLAVEKHYADISEDQFDFHSYCLRKMTLRSYVDMLKFQDRLHSFPYFHKAAIRAIRCYLKLHDSPKSTAGEDEMSKLAPAQKKKIKKQKKAEARAKKEAESKSEESTASGASKSGKRNVKPVDPDPHGQKLIQVEEPMAEASKYLRLLQKHSPNSLETHLLSFEVNMRKQKFLLAFQAVKQLLKLGAENPDSHRSLVKFFLMTESISAPTTEAEKLRWRVLEAERPSISQLQNKSLMEANKEFLGRHEDSLVHRAAYAEMLYILDPSKKTEAIKIIEDSTNKVVQTNEALGQAREWKLKDCIAVHTLLDTVLLDSQAASRWKSRCAEYFPCSTHFEGKHCSLMPDSVYNSSRKSNENGDTPNHPMGQTELSDGQLEAFKSLSVAT | binds
casein kinase II α-subunit isoform 1 (AtCKA1), endogenous (enzyme, UniProt Q08467 37-409) PILRSSIVTPTARAVSEVSGCTTIDPDFLVEISDSNQTRAMSKARVYTEVNVIRPKDYWDYESLIVQWGEQDDYEVVRKVGRGKYSEVFEGINVNSKEKCIIKILKPVKKKKIRREIKILQNLCGGPNIVKLLDVVRDQHSKTPSLIFEYVNSTDFKVLYPTLTDYDIRYYIYELLKALDFCHSQGIMHRDVKPHNVMIDHELRKLRLIDWGLAEFYHPGKEYNVRVASRYFKGPELLVDLQDYDYSLDMWSLGCMFAGMIFRKEPFFYGHDNQDQLVKIAKVLGTDELNAYLNKYQLELDPQLEALVGRHSRKPWSKFINADNQHLVSPEAIDFLDKLLRYDHQDRLTAKEAMAHAYFAQVRAAETSRMRSQ | binds
